We go through 63 molecules from paper PMC6925144, “A prospective compound screening contest identified broader inhibitors for Sirtuin 1” (Scientific Reports, 2019).

Amino acid sequences for entries named in this document (tags omitted). Residues count along the entry.
UniProt Q96EB6, 2-747 limits assumed: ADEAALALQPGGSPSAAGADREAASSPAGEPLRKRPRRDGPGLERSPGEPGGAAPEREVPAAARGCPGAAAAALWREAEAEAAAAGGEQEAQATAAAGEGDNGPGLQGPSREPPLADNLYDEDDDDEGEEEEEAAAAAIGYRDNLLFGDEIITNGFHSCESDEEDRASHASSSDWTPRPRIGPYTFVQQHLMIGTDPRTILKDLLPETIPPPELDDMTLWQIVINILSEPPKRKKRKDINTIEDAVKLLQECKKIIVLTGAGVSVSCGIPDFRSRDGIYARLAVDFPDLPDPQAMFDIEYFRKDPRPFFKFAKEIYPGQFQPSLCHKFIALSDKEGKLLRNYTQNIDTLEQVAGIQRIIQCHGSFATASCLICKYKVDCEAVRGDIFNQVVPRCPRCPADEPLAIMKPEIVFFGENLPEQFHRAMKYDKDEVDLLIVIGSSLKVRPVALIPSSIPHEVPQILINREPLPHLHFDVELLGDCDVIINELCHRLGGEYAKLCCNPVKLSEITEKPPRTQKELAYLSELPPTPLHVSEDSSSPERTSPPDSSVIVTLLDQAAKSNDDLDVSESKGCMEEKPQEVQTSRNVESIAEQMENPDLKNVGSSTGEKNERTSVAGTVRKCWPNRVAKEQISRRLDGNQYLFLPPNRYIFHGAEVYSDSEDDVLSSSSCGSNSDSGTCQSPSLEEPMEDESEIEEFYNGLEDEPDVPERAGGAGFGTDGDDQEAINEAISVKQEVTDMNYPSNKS

SMILES strings stand for the structures. In all, about 3,200 compounds were measured (“TSA(without NAD+) / Primary screening (TSA) / delta Tm (K)”: median about -0.07, highest 2% from about 0.37 on). The list shows a part of the results.

This assay has as its target NAD-dependent deacetylase Sirtuin 1 (human, UniProt Q96EB6). The experiment in a line: primary screen, delta tm. Details: single well (n = 1). To be noted: 10 µM. Here is the method: A total of 3,192 compounds extracted from the proposed lists were first screened by thermal shift assay (TSA), which determined a melting temperature shift (ΔTm) of Sirtuin 1 upon the addition of a test compound at a concentration of 10 µM (n = 1) with primary hit criteria of ΔTm > 0.45 K or ΔTm < −1.5 K. Primary hits (48 compounds) were retested in the same assay at three concentrations (5, 10, 20 µM, n = 4) for hit confirmation and for dose-dependency check. Secondary hits (41 compounds) were checked their selectivity for Sirtuin 1 based on counterscreening on unrelated protein targets (bovine carbonic anhydrase (CA) and recombinant SH2 domain of hABL1 kinase (ABL1)) at three different concentrations (5, 10, 20 µM, n = 4), which yielded 38 hit compounds, hereafter referred to as TSA hits. The TSA screening above was conducted in the absence of NAD+.
Consider `COc1ccc(C(N)=O)cc1NC(=O)c1nn(-c2ccc(C)c(F)c2)c2c1CCCC2`, for which the “TSA(without NAD+) / Primary screening (TSA) / delta Tm (K)” value was -0.02 K. In the case of `Cc1nc2ccccc2c2c(NC(=O)c3cnccn3)c3ccccc3n12`, the “TSA(without NAD+) / Primary screening (TSA) / delta Tm (K)” value is -0.04 K.

In the case of `COc1ccc2cc(CNc3ncnc4[nH]ncc34)ccc2c1`, the “TSA(without NAD+) / Primary screening (TSA) / delta Tm (K)” value is listed as -0.08 K.

`CC(C)(CNc1ncnc2ccsc12)C(N)=O`: the “TSA(without NAD+) / Primary screening (TSA) / delta Tm (K)” value is on record as -0.02 K. Turning to `COc1ccc(C(=O)OC(C)C(N)=O)cc1F` (stereo not drawn), the “TSA(without NAD+) / Primary screening (TSA) / delta Tm (K)” value is reported as 0.03 K. Turning to `CNS(=O)(=O)c1ccc(CCC(=O)Nc2ccccc2Cc2ccccc2)cc1`, the “TSA(without NAD+) / Primary screening (TSA) / delta Tm (K)” value is -0.04 K. As for `CC(=O)N1N=C(c2ccc(O)cc2)CC1c1ccccc1` (stereo not drawn), the figure is 0.07 K; as for `NS(=O)(=O)c1ccc(C(=O)Nc2ccc3c(c2)-c2ccccc2C3)cc1`, 0.23 K; as for `Cc1cccc(NC(=O)CN2CCN(CC3CCCCC3)CC2)c1C`, -0.15 K. On to `CN(C(=O)CCN/C(O)=C1/N=CC=CC1=O)c1ccc2ccccc2c1`, for which the “TSA(without NAD+) / Primary screening (TSA) / delta Tm (K)” value is given as -0.08 K. As to `Cc1c(C(=O)O)cnc2nc3ccccc3n12`, the “TSA(without NAD+) / Primary screening (TSA) / delta Tm (K)” value is reported as -0.18 K.

On to `Cc1ccc([N+](=O)[O-])c(Oc2nc(CN3CCOCC3)nc3scc(-c4cccs4)c23)c1`, for which the “TSA(without NAD+) / Primary screening (TSA) / delta Tm (K)” value is recorded as -0.24 K.

With `CCN(CC(=O)NCc1ccc(F)cc1)Cc1ccc(C(=O)Nc2ccccc2)cc1`, the “TSA(without NAD+) / Primary screening (TSA) / delta Tm (K)” value is reported as -0.17 K.

Regarding `O=c1[nH]cnc2c1cnn2-c1ccncc1`, the “TSA(without NAD+) / Primary screening (TSA) / delta Tm (K)” value amounted to 0.06 K.

On to `Cc1ccc2[nH]c3c(c2c1)CNCC3`, for which the “TSA(without NAD+) / Primary screening (TSA) / delta Tm (K)” value is on record as -0.32 K. As to `O=C(Cn1cnc2sccc2c1=O)Nc1ccccc1Oc1ccccc1`, the “TSA(without NAD+) / Primary screening (TSA) / delta Tm (K)” value is recorded as -0.13 K. Turning to `Cc1csc2c(N3CCN4CCC3CC4)ncnc12`, the “TSA(without NAD+) / Primary screening (TSA) / delta Tm (K)” value is -0.18 K.

Take `O=C1c2ccccc2C(=O)N1Cc1cc(=O)n2ccccc2n1`: the “TSA(without NAD+) / Primary screening (TSA) / delta Tm (K)” value is listed as 0.07 K. In the case of `Cc1cc(N2CCN(CC(=O)Nc3sc4c(c3C(N)=O)CCCC4)CC2)nc(C(C)C)n1`, the “TSA(without NAD+) / Primary screening (TSA) / delta Tm (K)” value is -0.03 K. For the molecule `CCC(O)CN(C)Cc1ccc2ccccc2c1` (stereo not drawn), the “TSA(without NAD+) / Primary screening (TSA) / delta Tm (K)” value amounted to 0.06 K. As for `CCN(C(=O)CSc1nnc(-c2sc3ccccc3c2Cl)o1)C1CCS(=O)(=O)C1` (stereo not drawn), the “TSA(without NAD+) / Primary screening (TSA) / delta Tm (K)” value was -0.04 K. `O=C(Cc1c[nH]c2ccccc12)N1CCc2[nH]c3ccccc3c2C1`: the “TSA(without NAD+) / Primary screening (TSA) / delta Tm (K)” value is on record as -0.14 K. As to `Cc1ccc2c(n1)nn1c(O)cc(C)nc21`, the “TSA(without NAD+) / Primary screening (TSA) / delta Tm (K)” value was -0.12 K. On to `COc1cccc(CN(C(=O)COC(=O)c2ccc(NC(C)=O)cc2)C23CC4CC(CC(C4)C2)C3)c1`, for which the “TSA(without NAD+) / Primary screening (TSA) / delta Tm (K)” value was -0.33 K.

For the molecule `O=C(COC(=O)C1(c2ccc(Cl)cc2)CCCC1)Nc1cc(S(=O)(=O)N2CCOCC2)ccc1N1CCCC1`, the “TSA(without NAD+) / Primary screening (TSA) / delta Tm (K)” value was -0.02 K. As for `O=C(NCC(O)c1ccccc1)c1ccc2c(=O)[nH]c(S)nc2c1` (stereo not drawn), the figure is -0.13 K; as for `CCC(NC(=O)C1=COCCC1)C1CN(Cc2ccccc2)CCO1` (stereo not drawn), -0.04 K. For `COCCCNCc1ccccc1`, the “TSA(without NAD+) / Primary screening (TSA) / delta Tm (K)” value is on record as -0.13 K. Consider `Cc1nc(N2CCN(Cc3nc(-c4ccccc4)no3)CC2)c2c3c(sc2n1)CC(C)CC3` (stereo not drawn), for which the “TSA(without NAD+) / Primary screening (TSA) / delta Tm (K)” value was -0.08 K.

`CCc1ncnc(N2CCCC(c3cc(C(N)=O)[nH]n3)C2)c1F` (stereo not drawn): the “TSA(without NAD+) / Primary screening (TSA) / delta Tm (K)” value was -0.02 K. Regarding `CN(C)C(CNC(=O)c1ccc2c(c1)OCCCO2)c1ccco1` (stereo not drawn), the “TSA(without NAD+) / Primary screening (TSA) / delta Tm (K)” value is on record as -0.03 K.

With `CN(c1ccc2ccccc2n1)S(=O)(=O)c1cc(C(N)=O)n(C)c1`, the “TSA(without NAD+) / Primary screening (TSA) / delta Tm (K)” value is listed as -0.01 K. Turning to `CC(SCC(O)CO)c1nc2ccccc2c(=O)[nH]1` (stereo not drawn), the “TSA(without NAD+) / Primary screening (TSA) / delta Tm (K)” value is -0.12 K. As to `CC1CC1c1ccc(/C=C/C(=O)Nc2cc(C(N)=O)ccc2N2CCCC2)o1` (stereo not drawn), the “TSA(without NAD+) / Primary screening (TSA) / delta Tm (K)” value is -0.17 K. In the case of `O=C(O)c1ccc2[nH]c(C(F)(F)F)nc2c1`, the “TSA(without NAD+) / Primary screening (TSA) / delta Tm (K)” value is on record as -0.01 K. In the case of `C=CCN(C(=O)CCCc1nc(C(C)(C)C)no1)c1nc2c(s1)CCCC2`, the “TSA(without NAD+) / Primary screening (TSA) / delta Tm (K)” value is recorded as -0.47 K. In the case of `c1ccc2c(c1)NCC1CCCN21` (stereo not drawn), the “TSA(without NAD+) / Primary screening (TSA) / delta Tm (K)” value is recorded as -0.21 K. As for `CCc1cc2c(N3CCC(C(=O)Nc4cc(C)on4)CC3)ncnc2s1`, the “TSA(without NAD+) / Primary screening (TSA) / delta Tm (K)” value is recorded as -0.08 K. As for `CCCCn1c(=O)c2c(nc3n(CCCC)c(C)cn23)n(C)c1=O`, the figure is -0.02 K; as for `CN(c1ccccc1)S(=O)(=O)c1cccc(NC(=O)c2ccc(C(N)=O)cc2)c1`, 0.02 K; as for `CC(C)(C)c1ccc(OCCCC(=O)Nc2cccc(S(=O)(=O)N3CCOCC3)c2)cc1`, 0.28 K.

Take `NC(=O)c1cnc(N2CCC(N3CCNC3=O)CC2)c(Cl)c1`: the “TSA(without NAD+) / Primary screening (TSA) / delta Tm (K)” value was 0.02 K. For the molecule `CCc1ccc(-c2noc(COc3ccc(-c4nnco4)cc3)n2)cc1`, the “TSA(without NAD+) / Primary screening (TSA) / delta Tm (K)” value is recorded as -0.15 K. For the molecule `CNS(=O)(=O)c1cc(N)ccc1C`, the “TSA(without NAD+) / Primary screening (TSA) / delta Tm (K)” value was -0.02 K. With `O=C(CN1CCCCCC1=O)N1CCN(c2cnccn2)CC1`, the “TSA(without NAD+) / Primary screening (TSA) / delta Tm (K)” value is listed as -0.01 K. Take `CN(c1ccc(Oc2ncnc3ccccc23)cc1)S(=O)(=O)c1ccc2ccccc2c1`: the “TSA(without NAD+) / Primary screening (TSA) / delta Tm (K)” value is -0.17 K. `CCc1c(C)c(C#N)c2nc3ccccc3n2c1S`: the “TSA(without NAD+) / Primary screening (TSA) / delta Tm (K)” value amounted to 0.39 K. Take `COC[C@@H](C)N`: the “TSA(without NAD+) / Primary screening (TSA) / delta Tm (K)” value is listed as 0.02 K. On to `Cc1c(C(=O)N2c3ccccc3NC(=O)C2(C)C)oc2ccc(Br)cc12`, for which the “TSA(without NAD+) / Primary screening (TSA) / delta Tm (K)” value is on record as -0.38 K. Regarding `c1ccc(-c2[nH]c3c(ccc4ccccc43)c2-c2ccccc2)cc1`, the “TSA(without NAD+) / Primary screening (TSA) / delta Tm (K)” value came to 0.52 K. Take `O=C(CN1CCN(c2nc(-c3ccccc3)nc3ccccc23)CC1)Nc1nncs1`: the “TSA(without NAD+) / Primary screening (TSA) / delta Tm (K)” value is reported as -0.28 K. Then `CC1CCC(NN)CC1` (stereo not drawn), with -0.08 K; and `COc1cc(CN(C)C(=O)CN2C(=O)NC3(CCc4ccccc43)C2=O)ccc1OCc1ccccc1` (stereo not drawn), with -0.17 K; and `O=C(NCCc1c[nH]c2ccccc12)C1=COCCO1`, with -0.14 K.

Take `COC(=O)CCN`: the “TSA(without NAD+) / Primary screening (TSA) / delta Tm (K)” value is recorded as -0.17 K. Take `O=C(c1cc2c(s1)CCCC2)N(Cc1ccccc1)c1ccccc1`: the “TSA(without NAD+) / Primary screening (TSA) / delta Tm (K)” value was -0.08 K. As to `CCC(CN)OC` (stereo not drawn), the “TSA(without NAD+) / Primary screening (TSA) / delta Tm (K)” value was -0.28 K. For `CSc1nc(-c2ccccc2)c[nH]1`, the “TSA(without NAD+) / Primary screening (TSA) / delta Tm (K)” value was -0.13 K.

Consider `O=c1[nH]nc(-c2ccc(F)cc2)o1`, for which the “TSA(without NAD+) / Primary screening (TSA) / delta Tm (K)” value is reported as -0.01 K. As for `O=C(/C=C/c1ccco1)C1=C(O)C(=O)N(CCN2CCOCC2)C1c1ccncc1` (stereo not drawn), the “TSA(without NAD+) / Primary screening (TSA) / delta Tm (K)” value is -0.02 K. Regarding `CC1(C)CC(=O)C(=CNNC(=O)CC23CC4CC(CC(C4)C2)C3)C(=O)C1`, the “TSA(without NAD+) / Primary screening (TSA) / delta Tm (K)” value is recorded as -0.02 K.

Take `Cc1cc(CNC(=O)Cc2sc(S)nc2C)on1`: the “TSA(without NAD+) / Primary screening (TSA) / delta Tm (K)” value is given as -0.11 K. Regarding `Cc1cccc(-c2nc3ccccc3n3c(C)nnc23)c1`, the “TSA(without NAD+) / Primary screening (TSA) / delta Tm (K)” value is reported as -0.14 K.
